{
  "source": "paper PMC10246235",
  "binders": {"B1": {"name": "SecY (protein, UniProt P16336 1-431)", "chain": "MFKTISNFMRVSDIRNKIIFTLLMLIVFRIGAFIPVPYVNAEALQAQSQMGVFDLLNTFGGGALYQFSIFAMGITPYITASIIIQLLQMDVVPKFTEWSKQGEVGRRKLAQFTRYFTIVLGFIQALGMSYGFNNLANGMLIEKSGVSTYLIIALVLTGGTAFLMWLGEQITSHGVGNGISIIIFAGIVSSIPKTIGQIYETQFVGSNDQLFIHIVKVALLVIAILAVIVGVIFIQQAVRKIAIQYAKGTGRSPAGGGQSTHLPLKVNPAGVIPVIFAVAFLITPRTIASFFGTNDVTKWIQNNFDNTHPVGMAIYVALIIAFTYFYAFVQVNPEQMADNLKKQGGYIPGVRPGKMTQDRITSILYRLTFVGSIFLAVISILPIFFIQFAGLPQSAQIGGTSLLIVVGVALETMKQLESQLVKRNYRGFMKN"}, "B2": {"name": "GlcD (protein, UniProt P94535 1-470)", "chain": "MITKDVKEQLIQVSGPENFDDSNAGRLVYSYDATPQYQSMPDAVIAPRNTDEISRILTICSEHRVPIVPRGSGTNLCGGTCPTEGGLVLLFKHMNQILEIDEENLTATVQPGVITLDMIRAVESKGLFYPPDPSSMKISTIGGNINENSGGLRGLKYGVTRDYVIGLEVVLANGDIIRTGGKLAKDVAGYDLTRLFVGSEGTLGIVTEAIVKLVPKPETKKTLLALYENIDAAAQTVSDIIAAKIIPATLEFLDQPTLLVIEDYAKIGLPTSAKAVLLIEQDGPFETVERDMEKIEAICKKGDAVSVQTAQTEEEAFALTEARRSALSALARLKPTTILEDATVPRSEIANMVKAINDIAAKYDISICTFGHAGDGNLHPTCTTDIRNKDEMERVEQAFAEIFEKAIELGGTITGEHGVGEMKAPYLEMKLKKEGIDAMKALKAAFDPRNILNPGKMFAKDARKRVVAER"}, "B3": {"name": "NupN (protein, UniProt O05252 23-359)", "chain": "CGNSEKSSGSGEGKNKFSVAMVTDVGGVDDKSFNQSAWEGIQAFGKENGLKKGKNGYDYLQSKSDADYTTNLNKLARENFDLIYGVGYLMEDSISEIADQRKNTNFAIIDAVVDKDNVASITFKEQEGSFLVGVAAALSSKSGKIGFVGGMESELIKKFEVGFRAGVQAVNPKAVVEVKYAGGFDKADVGKATAESMYKSGVDVIYHSAGATGTGVFTEAKNLKKEDPKRDVWVIGVDKDQYAEGQVEGTDDNVTLTSMVKKVDTVVEDVTKKASDGKFPGGETLTYGLDQDGVGISPSKQNLSDDVIKAVDKWKKKIIDGLEIPATEKELKTFKAE"}, "B4": {"name": "OppB (protein, UniProt P24138 1-311)", "chain": "MLKYIGRRLVYMIITLFVIVTVTFFLMQAAPGGPFSGEKKLPPEIEANLNAHYGLDKPLFVQYVSYLKSVAMWDFGPSFKYKGQSVNDLISSGFPVSFTLGAEAILLALALGVLFGVIAALYHNKWQDYTVAILTIFGISVPSFIMAAVLQYVFSMKLGLFPVAGWDSWAYTFLPSIALASMPMAFIARLSRSSMIEVLNSDYIRTAKAKGLSRPAVTVRHAIRNALLPVVTYMGPMAAQVLTGSFIIETIFGIPGLGAHFVNSITNRDYTVIMGVTVFFSVILLLCVLIVDVLYGIIDPRIKLSKAKKGA"}, "B5": {"name": "FhuD (protein, UniProt P37580 24-315)", "chain": "CGNNSESKGSASDSKGAETFTYKAENGNVKIPKHPKRVVVMADGYYGYFKTLGINVVGAPENVFKNPYYKGKTNGVENIGDGTSVEKVIDLNPDLIIVWTTQGADIKKLEKIAPTVAVKYDKLDNIEQLKEFAKMTGTEDKAEKWLAKWDKKVAAAKTKIKKAVGDKTISIMQTNGKDIYVFGKDFGRGGSIIYKDLGLQATKLTKEKAIDQGPGYTSISLEKLPDFAGDYIFAGPWQSGGDDGGVFESSIWKNLNAVKNGHVYKMDPIGFYFTDPISLEGQLEFITESLTK"}, "B6": {"name": "QoxB (protein, UniProt P34956 1-649)", "chain": "MKFKWDEFFVTGDPLILGAQVSIALSTIAIIFVLTYFKKWKWLWSEWITTVDHKKLGIMYIISAVIMLFRGGVDGLMMRAQLALPNNSFLDSNHYNEIFTTHGTIMIIFMAMPFLIGLINVVVPLQIGARDVAFPYLNNLSFWTFFVGAMLFNISFVIGGSPNAGWTSYMPLASNDMSPGPGENYYLLGLQIAGIGTLMTGINFMVTILKMRTKGMTLMRMPMFTWTTLITMVIIVFAFPVLTVALALLSFDRLFGAHFFTLEAGGMPMLWANLFWIWGHPEVYIVILPAFGIFSEIISSFARKQLFGYKAMVGSIIAISVLSFLVWTHHFFTMGNSASVNSFFSITTMAISIPTGVKIFNWLFTMYKGRISFTTPMLWALAFIPNFVIGGVTGVMLAMAAADYQYHNTYFLVSHFHYVLIAGTVFACFAGFIFWYPKMFGHKLNERIGKWFFWIFMIGFNICFFPQYFLGLQGMPRRIYTYGPNDGWTTLNFISTVGAFMMGVGFLILCYNIYYSFRYSTREISGDSWGVGRTLDWATSSAIPPHYNFAVLPEVKSQDAFLHMKEEKTELYPESKFKKIHMPSNSGRPFFMSVAFGLAGFGLVFEWYWMGVVGLIGVLLCMVLRSFEYDNGYYISVDEIKETERKISE"}, "B7": {"name": "MsmX (protein, UniProt P94360 1-365)", "chain": "MAELRMEHIYKFYDQKEPAVDDFNLHIADKEFIVFVGPSGCGKSTTLRMVAGLEEISKGDFYIEGKRVNDVAPKDRDIAMVFQNYALYPHMTVYDNIAFGLKLRKMPKPEIKKRVEEAAKILGLEEYLHRKPKALSGGQRQRVALGRAIVRDAKVFLMDEPLSNLDAKLRVQMRAEIIKLHQRLQTTTIYVTHDQTEALTMATRIVVMKDGKIQQIGTPKDVYEFPENVFVGGFIGSPAMNFFKGKLTDGLIKIGSAALTVPEGKMKVLREKGYIGKEVIFGIRPEDIHDELIVVESYKNSSIKAKINVAELLGSEIMIYSQIDNQDFIARIDARLDIQSGDELTVAFDMNKGHFFDSETEVRIR"}, "B8": {"name": "FtsA (protein, UniProt P28264 1-440)", "chain": "MNNNELYVSLDIGTSNTKVIVGEMTDDSLNIIGVGNVPSEGLKKGSIVDIDETVHSIRKAFDQAERMVGFPLRKAIVGVNGNYINIQDTNGVVAVSSENKEIQVEDVRRVMEAAQVVSVPHEQLIVDVIPKQFIVDGRDEITDPKKMLGVRLEVEGTLITGSKTILHNLLRCVERAGIEITDICLQPLAAGSAALSKDEKNLGVALIDIGGGSTTIAVFQNGHLTSTRVIPLGGENITKDISIGLRTSTEEAERVKKQLGHAYYDEASEDEIFEVTVIGTNQKQTFTQQEAANIIEARVEEILEIVSEELRSMGITDLPGGFVLTGGQAAMPGVMSLAQDVLQNNVRVASPNYIGVRDPQYMTGVGLIQFACRNARIQGRKIGFKMPEEAIQEIAVSSSEEQEQHHHQNEVQQRPKGKQKTQAEHNKQSKMKKLLSMFWE"}, "B9": {"name": "YrbF (protein, UniProt O32052 1-89)", "chain": "MMTGTLGTLVPIILMFAVLYFLLIRPQQKQQKAVRQMQEELKKGDSVVTIGGLHGTVDSIDESKVVIKTGDNTRLTFDRRAIREVSAAE"}, "B10": {"name": "HtpX (protein, UniProt O31657 1-298)", "chain": "MAKRIFLFILTNILVLTTIGIVLSVLSSVTGVGTYFTADGGIDPMALLVFSLVVGFVGSFTSLAISRWMAKTMMGVRVLNPKKHSLSYEEQQLVDRVHRLSRSAGLTKMPEVGIYRSPEVNAFATGPSKRRSLVAVSSGLLEQMDDAAVEGVLAHEVAHITNGDMVTMTLLQGIVNTFVVFLSRIAAWIASRFVKEDLAPIVHFIAMIIFQIVFSILGSLVVFAYSRHREFHADRGGADLAGKDKMIHALRTLKSYSSRILEDDQTAVQTLKINGKKRSSLFSTHPDLDERIRRLEAK"}},
  "note": "These are yes or no findings as the source states them, for the method shown. In cells and extracts the contact can be indirect. Here binding means that the protein was enriched with, or labelled near, the bait; the list need not be complete. Sequences can lack the tags named with a protein.",
  "data": [
    {"target": "T1, MeeF-FLAG (Bacillus subtilis) (UniProt O34447)", "T1 sequence": "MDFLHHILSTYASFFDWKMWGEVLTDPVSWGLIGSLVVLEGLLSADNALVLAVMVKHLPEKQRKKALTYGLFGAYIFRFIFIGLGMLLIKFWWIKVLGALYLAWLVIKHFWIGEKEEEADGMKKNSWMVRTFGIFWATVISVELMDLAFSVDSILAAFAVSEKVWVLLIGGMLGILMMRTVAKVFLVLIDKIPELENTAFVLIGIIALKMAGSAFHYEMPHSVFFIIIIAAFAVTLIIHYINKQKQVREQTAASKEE", "test": "affinity purification with mass spectrometry; C-terminally FLAG-tagged bait captured on anti-FLAG M2 magnetic beads from B. subtilis lysate (overnight LB culture with 50 uM Mn; lysozyme, sonication, DNase, 1% Triton X-100), 30 °C 3 h, three PBS washes; eluted by heating at 95 °C for 10 min; LC-MS/MS, at least 2 peptides", "values": [
      {"binder": "B1", "binding": "binds"},
      {"binder": "B2", "binding": "binds"},
      {"binder": "B3", "binding": "binds"},
      {"binder": "B4", "binding": "binds"},
      {"binder": "B5", "binding": "binds"},
      {"binder": "B6", "binding": "binds"},
      {"binder": "B7", "binding": "binds"},
      {"binder": "B8", "binding": "binds"},
      {"binder": "B9", "binding": "binds"},
      {"binder": "B10", "binding": "binds"}
    ]}
  ]
}
